The list shows a part of the results.
The targets below were run with c1cn2cc(-c3ccc4cn[nH]c4c3)nc(Nc3ccc(N4CCOCC4)cc3)c2n1 [entospletinib] (assay: log2 fold change, soluble protein after heating vs DMSO (PISA); higher = thermal stabilisation; K562 cells, 10 uM, 30 min; active = over 0.2 and 3.5 SD of the protein, either way, in both replicates (recomputed)).
Method in brief: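 Soluble protein was defined as the supernatant after 21,000xg for 90 min. It came from K562 cells at 2×10^6 cells/mL given 10 μM compound for 30 min, heated in aliquots for 3 min across 48°C-58°C, pooled, and extracted in PBS with 0.5% NP-40 at 4°C, and was quantified by TMTpro 16plex LC-MS/MS with equalised channel sums. Thermal stability against control samples, from duplicates, is reported as log2 fold change.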

Protein sequences, listed by entry. Tags and fused reporters are not part of them. Lines headed by an entry give the natural chain unless they say otherwise; changes in a name come on top.
UniProt P49902: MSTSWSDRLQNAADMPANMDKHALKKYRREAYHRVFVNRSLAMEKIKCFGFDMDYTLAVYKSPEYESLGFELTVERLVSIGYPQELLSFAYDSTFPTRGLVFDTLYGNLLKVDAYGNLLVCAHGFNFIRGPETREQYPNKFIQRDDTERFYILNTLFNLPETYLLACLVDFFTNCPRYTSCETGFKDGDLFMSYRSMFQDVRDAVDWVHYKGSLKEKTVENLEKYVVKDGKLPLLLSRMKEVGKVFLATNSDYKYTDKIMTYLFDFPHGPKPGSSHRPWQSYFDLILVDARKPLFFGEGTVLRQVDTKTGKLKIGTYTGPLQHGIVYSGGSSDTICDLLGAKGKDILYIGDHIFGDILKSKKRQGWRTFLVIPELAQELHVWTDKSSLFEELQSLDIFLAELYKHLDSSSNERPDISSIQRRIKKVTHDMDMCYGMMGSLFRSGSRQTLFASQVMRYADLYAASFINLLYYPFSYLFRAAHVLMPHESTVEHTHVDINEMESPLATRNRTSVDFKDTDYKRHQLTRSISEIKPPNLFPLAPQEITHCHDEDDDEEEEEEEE
UniProt O43482, whole entry, looked up: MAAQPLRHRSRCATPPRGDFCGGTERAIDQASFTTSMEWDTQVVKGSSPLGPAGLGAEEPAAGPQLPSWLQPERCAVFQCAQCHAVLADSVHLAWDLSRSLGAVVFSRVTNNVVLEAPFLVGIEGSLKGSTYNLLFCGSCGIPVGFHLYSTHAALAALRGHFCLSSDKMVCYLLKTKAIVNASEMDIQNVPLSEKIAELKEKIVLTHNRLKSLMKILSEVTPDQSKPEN
UniProt Q9Y266: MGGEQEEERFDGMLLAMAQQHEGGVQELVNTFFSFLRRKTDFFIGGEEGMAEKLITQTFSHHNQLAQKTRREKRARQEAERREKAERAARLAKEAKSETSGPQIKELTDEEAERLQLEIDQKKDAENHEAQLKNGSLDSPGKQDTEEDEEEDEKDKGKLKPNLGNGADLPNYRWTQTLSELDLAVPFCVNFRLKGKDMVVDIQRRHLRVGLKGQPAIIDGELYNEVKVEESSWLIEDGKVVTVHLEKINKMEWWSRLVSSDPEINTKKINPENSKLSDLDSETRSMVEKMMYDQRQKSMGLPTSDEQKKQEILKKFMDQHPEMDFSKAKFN
UniProt Q32P28: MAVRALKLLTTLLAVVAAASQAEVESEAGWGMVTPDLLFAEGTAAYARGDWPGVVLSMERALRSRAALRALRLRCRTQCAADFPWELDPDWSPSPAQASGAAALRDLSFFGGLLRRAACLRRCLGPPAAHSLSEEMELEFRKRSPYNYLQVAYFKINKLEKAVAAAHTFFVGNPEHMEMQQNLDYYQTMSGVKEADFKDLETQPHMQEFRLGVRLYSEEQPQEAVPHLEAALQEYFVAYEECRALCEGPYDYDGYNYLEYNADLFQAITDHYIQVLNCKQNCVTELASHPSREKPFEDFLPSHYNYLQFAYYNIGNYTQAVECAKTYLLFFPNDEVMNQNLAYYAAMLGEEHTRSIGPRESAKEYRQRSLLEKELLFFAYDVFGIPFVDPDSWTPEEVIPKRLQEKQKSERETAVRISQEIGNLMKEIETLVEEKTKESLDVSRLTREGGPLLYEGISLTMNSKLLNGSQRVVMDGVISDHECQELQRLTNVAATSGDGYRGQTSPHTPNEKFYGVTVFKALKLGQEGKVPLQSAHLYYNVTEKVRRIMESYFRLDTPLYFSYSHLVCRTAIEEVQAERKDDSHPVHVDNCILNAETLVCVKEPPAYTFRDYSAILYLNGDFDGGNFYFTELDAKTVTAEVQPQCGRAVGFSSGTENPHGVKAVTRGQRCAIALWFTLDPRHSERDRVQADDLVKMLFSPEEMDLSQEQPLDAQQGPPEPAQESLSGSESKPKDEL
UniProt O60502: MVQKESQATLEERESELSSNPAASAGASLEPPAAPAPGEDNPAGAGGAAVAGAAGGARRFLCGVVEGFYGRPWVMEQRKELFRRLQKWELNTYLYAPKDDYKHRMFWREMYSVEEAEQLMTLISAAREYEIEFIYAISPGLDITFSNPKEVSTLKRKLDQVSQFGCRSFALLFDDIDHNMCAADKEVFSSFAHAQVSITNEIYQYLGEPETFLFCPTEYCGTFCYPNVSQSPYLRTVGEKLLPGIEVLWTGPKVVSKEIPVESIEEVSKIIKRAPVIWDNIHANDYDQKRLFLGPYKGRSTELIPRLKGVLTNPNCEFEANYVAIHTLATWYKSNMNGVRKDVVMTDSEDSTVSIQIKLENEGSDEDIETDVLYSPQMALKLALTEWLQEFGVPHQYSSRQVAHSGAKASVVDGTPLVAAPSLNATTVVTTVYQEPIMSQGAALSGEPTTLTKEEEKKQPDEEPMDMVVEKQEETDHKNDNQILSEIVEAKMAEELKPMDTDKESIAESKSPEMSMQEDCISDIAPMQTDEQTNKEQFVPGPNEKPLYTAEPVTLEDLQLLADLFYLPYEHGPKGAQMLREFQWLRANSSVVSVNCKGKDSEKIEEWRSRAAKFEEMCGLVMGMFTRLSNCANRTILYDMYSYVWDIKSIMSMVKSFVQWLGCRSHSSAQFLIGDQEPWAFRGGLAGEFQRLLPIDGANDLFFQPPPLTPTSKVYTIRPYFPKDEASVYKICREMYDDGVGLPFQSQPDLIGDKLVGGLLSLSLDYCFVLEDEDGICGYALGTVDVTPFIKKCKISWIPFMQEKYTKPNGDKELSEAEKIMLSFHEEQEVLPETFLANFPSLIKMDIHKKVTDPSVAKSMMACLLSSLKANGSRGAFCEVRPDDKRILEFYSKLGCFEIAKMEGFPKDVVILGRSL
UniProt Q9NTK5, whole entry, looked up: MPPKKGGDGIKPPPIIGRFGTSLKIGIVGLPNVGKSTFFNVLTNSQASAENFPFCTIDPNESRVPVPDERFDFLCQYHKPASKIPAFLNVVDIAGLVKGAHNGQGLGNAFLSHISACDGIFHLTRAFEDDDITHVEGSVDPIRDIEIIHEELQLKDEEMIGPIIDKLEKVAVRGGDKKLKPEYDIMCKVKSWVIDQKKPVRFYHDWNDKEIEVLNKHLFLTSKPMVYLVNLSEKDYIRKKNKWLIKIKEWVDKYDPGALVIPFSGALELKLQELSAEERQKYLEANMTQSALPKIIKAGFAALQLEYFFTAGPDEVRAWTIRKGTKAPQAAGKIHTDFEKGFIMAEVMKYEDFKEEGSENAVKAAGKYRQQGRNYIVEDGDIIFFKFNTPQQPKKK
UniProt P07237: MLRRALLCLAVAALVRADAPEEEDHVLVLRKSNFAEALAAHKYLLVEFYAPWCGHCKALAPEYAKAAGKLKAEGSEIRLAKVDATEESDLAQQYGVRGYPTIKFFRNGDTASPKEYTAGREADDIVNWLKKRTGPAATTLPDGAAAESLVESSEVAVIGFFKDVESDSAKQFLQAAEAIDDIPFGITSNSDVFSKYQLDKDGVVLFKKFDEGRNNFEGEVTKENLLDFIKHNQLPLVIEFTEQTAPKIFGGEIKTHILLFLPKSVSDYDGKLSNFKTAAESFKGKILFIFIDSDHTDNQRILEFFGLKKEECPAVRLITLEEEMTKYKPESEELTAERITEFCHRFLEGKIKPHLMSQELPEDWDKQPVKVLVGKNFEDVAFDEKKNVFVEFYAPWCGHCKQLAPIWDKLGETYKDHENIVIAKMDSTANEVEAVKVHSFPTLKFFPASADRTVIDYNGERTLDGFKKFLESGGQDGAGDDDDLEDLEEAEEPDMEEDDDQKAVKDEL
UniProt Q96G74: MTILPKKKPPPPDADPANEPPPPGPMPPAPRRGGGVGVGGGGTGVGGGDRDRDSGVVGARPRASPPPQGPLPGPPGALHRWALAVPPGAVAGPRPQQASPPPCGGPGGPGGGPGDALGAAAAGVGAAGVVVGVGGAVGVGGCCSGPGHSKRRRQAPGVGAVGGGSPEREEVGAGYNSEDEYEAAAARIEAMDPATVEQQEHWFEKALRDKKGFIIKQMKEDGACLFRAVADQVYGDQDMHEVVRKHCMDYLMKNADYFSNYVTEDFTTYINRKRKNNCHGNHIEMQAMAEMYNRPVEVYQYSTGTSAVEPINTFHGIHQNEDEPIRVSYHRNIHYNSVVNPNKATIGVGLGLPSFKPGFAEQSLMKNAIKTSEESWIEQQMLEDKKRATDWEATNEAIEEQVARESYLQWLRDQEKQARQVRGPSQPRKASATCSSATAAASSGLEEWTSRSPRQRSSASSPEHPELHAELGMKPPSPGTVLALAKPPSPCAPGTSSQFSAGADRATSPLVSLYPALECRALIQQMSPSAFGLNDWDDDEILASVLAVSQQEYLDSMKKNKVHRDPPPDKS
UniProt P20774: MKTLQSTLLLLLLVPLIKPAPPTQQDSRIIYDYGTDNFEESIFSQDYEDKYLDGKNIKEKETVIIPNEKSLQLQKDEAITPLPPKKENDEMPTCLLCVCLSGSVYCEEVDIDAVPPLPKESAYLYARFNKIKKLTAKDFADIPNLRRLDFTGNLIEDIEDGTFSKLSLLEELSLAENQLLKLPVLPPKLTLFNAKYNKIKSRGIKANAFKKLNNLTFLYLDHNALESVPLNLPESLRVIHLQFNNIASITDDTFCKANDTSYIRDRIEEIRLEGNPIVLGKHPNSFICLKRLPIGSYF
UniProt Q9H0G5: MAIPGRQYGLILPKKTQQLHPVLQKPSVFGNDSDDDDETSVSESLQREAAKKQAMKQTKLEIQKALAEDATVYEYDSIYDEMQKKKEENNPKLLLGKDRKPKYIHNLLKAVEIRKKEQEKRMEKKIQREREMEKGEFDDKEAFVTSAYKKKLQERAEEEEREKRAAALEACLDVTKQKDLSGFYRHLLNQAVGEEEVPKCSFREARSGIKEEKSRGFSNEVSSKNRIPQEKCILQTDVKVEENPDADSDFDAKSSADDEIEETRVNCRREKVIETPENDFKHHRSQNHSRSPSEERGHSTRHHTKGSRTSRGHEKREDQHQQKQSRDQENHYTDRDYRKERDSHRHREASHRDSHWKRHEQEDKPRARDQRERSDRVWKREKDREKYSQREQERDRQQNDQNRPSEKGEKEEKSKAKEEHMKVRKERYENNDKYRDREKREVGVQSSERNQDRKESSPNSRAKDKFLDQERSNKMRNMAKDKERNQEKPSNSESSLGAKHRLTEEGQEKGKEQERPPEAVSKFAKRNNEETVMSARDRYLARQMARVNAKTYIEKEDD
UniProt Q96E22: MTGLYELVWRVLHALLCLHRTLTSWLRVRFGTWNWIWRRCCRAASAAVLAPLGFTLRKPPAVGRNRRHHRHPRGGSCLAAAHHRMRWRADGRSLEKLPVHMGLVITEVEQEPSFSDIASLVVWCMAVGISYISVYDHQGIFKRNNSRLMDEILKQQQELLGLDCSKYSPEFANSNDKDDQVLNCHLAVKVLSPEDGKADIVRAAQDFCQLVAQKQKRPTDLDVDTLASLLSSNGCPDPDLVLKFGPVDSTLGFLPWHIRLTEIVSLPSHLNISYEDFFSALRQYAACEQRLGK
UniProt Q8WUM0: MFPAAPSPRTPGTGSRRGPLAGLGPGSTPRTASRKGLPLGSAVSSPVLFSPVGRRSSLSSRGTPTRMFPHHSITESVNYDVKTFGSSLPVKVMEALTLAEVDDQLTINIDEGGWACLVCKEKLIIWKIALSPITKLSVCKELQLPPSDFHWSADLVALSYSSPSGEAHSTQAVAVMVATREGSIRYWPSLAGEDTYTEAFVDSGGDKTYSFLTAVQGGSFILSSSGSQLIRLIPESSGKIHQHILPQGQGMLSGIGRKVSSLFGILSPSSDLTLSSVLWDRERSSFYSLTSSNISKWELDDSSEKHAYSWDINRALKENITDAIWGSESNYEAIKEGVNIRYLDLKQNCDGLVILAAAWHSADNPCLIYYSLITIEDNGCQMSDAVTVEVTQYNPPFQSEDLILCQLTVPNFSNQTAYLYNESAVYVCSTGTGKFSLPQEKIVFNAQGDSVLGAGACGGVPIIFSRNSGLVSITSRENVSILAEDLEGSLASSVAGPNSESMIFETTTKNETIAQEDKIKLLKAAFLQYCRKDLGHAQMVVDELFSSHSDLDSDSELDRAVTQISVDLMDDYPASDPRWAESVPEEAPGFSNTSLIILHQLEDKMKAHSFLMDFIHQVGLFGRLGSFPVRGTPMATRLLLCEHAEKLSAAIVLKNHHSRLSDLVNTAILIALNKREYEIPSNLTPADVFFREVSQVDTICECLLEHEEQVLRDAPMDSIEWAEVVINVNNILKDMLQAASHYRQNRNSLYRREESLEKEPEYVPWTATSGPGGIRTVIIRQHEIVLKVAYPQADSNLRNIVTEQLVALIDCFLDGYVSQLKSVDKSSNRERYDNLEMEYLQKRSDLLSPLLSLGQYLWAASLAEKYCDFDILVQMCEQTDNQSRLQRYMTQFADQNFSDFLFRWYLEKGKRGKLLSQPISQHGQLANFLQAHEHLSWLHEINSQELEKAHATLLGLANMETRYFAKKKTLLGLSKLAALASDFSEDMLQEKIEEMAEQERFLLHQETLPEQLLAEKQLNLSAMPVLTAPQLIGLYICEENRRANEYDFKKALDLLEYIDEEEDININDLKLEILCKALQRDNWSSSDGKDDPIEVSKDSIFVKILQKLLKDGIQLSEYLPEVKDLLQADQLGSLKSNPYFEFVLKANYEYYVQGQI

log2 fold change, inactive:
NT5C2 (UniProt P49902) -0.07, NUP58 (UniProt Q9BVL2) -0.049, NSUN5 isoform 2 (UniProt Q96P11) 0, NUP50 (UniProt Q9UKX7) -0.035, ORC6 (UniProt Q9Y5N6) -0.122, NSUN6 (UniProt Q8TEA1) 0.042, NUDT9 (UniProt Q9BW91) 0.012, OIP5 (UniProt O43482) 0.087, PA2G4 (UniProt Q9UQ80) 0.008, NT5DC2 isoform 2 (UniProt Q9H857) -0.026, NUP62 (UniProt P37198) -0.003, NUTF2 (UniProt P61970) -0.029, NUDC (UniProt Q9Y266) 0.04, OCIAD1 (UniProt D6RDK6) -0.017, OPLAH (UniProt O14841) 0.041, P3H1 (UniProt Q32P28) 0.016, OGA (UniProt O60502) -0.018, OLA1 (UniProt Q9NTK5) -0.064, PAAT (UniProt Q9H8K7) -0.037, NUCB1 (UniProt Q02818) -0.013, OGDH (UniProt Q02218) 0.031, P4HB (UniProt P07237) -0.045, OSTF1 (UniProt Q92882) 0.073, OTUD5 isoform 5 (UniProt Q96G74) -0.039, OGN (UniProt P20774) 0.07, NSRP1 (UniProt Q9H0G5) 0.08, NUP35 (UniProt Q8NFH5) 0.007, NUS1 (UniProt Q96E22) -0.037, NUP133 (UniProt Q8WUM0) 0.077, NUDT18 (UniProt Q6ZVK8) -0.281

Source: the supplement of paper PMC10849652
